PubChem BioAssay AID686938 – Drosophila RNAi Screening Center – 2013
In all, the deposit lists about 23,000 reagents; shown is a random part of those that have a named target and a result. Over the whole deposit, 75 (0.33%) got an active call. 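Raw plate signals without normalisation; calls rest on plate z-scores that were not deposited; ratio present for only 364 wells.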 Reagents against one gene are numbered here. A plus sign joins genes that one reagent is predicted to hit. Not stated in the record: the dose of the treatment.

Assay: 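Fly genes required for calcium entry once internal stores are emptied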 (primary screen)
Cell system: Drosophila S2R+ cells
Reagent: long dsRNA against Drosophila genes, about 0.25 µg dsRNA per well, roughly 10,000 cells
Time to read-out: 5 days of knock-down before the calcium assay
Conditions: thapsigargin (SERCA pump blocker) to empty calcium stores; entry signal taken 4 min after adding it
Measurement: 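Per-well fluo-4 fluorescence in two replicates, unnormalised, measured in resting cells and 4 min after store depletion by the SERCA blocker thapsigargin; ratio of the two present in few wells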
Scale: calcium entry signal: higher = stronger calcium signal after store depletion; entry to resting ratio: higher = more calcium entry relative to resting level; resting calcium signal: higher = higher resting calcium signal
Units: calcium entry signal in fluorescence units; resting calcium signal in fluorescence units
Hit rule: 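Called when the plate z-score of the entry-to-rest ratio, mean of duplicates, falls below −3; wells with low overall dye signal (Fmax z below −2) or more than five off-targets excluded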
Meaning of the calls: active = strongly reduced calcium entry; inactive = no strong reduction

Silencing of CG11350 resulted in: calcium entry signal, replicate 1 = 2.17e7; calcium entry signal, replicate 2 = 1.84e7; resting calcium signal, replicate 1 = 1.28e7; resting calcium signal, replicate 2 = 1.01e7; inactive.
Depletion of CG5509 gave: calcium entry signal, replicate 1 = 4.10e7; calcium entry signal, replicate 2 = 3.91e7; resting calcium signal, replicate 1 = 2.03e7; resting calcium signal, replicate 2 = 1.79e7; inactive.
After knock-down of CG18301, the screen gave calcium entry signal, replicate 1 = 3.64e7; calcium entry signal, replicate 2 = 4.78e7; resting calcium signal, replicate 1 = 1.85e7; resting calcium signal, replicate 2 = 2.00e7; inactive.
With knock-down of Rbcn-3B (Rabconnectin-3B), the screen gave calcium entry signal, replicate 1 = 4.26e7; calcium entry signal, replicate 2 = 6.47e7; entry to resting ratio 1.4; resting calcium signal, replicate 1 = 2.97e7; resting calcium signal, replicate 2 = 4.05e7; inactive.
Knock-down of CG15865 resulted in: calcium entry signal, replicate 1 = 2.41e7; calcium entry signal, replicate 2 = 3.74e7; resting calcium signal, replicate 1 = 1.36e7; resting calcium signal, replicate 2 = 1.63e7; inactive.
RfC4 (Replication factor C subunit 4) scored calcium entry signal, replicate 1 = 4.52e7; calcium entry signal, replicate 2 = 3.96e7; resting calcium signal, replicate 1 = 3.26e7; resting calcium signal, replicate 2 = 1.83e7; inactive.
After knock-down of CG2818, the record shows calcium entry signal, replicate 1 = 5.25e7; resting calcium signal, replicate 1 = 2.71e7; inactive.
After knock-down of Dnaaf3 (Dynein axonemal assembly factor 3), the screen gave calcium entry signal, replicate 1 = 5.79e7; calcium entry signal, replicate 2 = 4.74e7; resting calcium signal, replicate 1 = 2.47e7; resting calcium signal, replicate 2 = 2.22e7; inactive.
pall (pallbearer) showed calcium entry signal, replicate 1 = 4.08e7; calcium entry signal, replicate 2 = 3.91e7; resting calcium signal, replicate 1 = 3.05e7; resting calcium signal, replicate 2 = 1.63e7; inactive.
Osi7 (Osiris 7) gave calcium entry signal, replicate 1 = 3.94e7; calcium entry signal, replicate 2 = 3.49e7; resting calcium signal, replicate 1 = 1.72e7; resting calcium signal, replicate 2 = 1.65e7; inactive.
With knock-down of Mal-A1 (Maltase A1), the screen gave calcium entry signal, replicate 1 = 4.01e7; calcium entry signal, replicate 2 = 4.20e7; resting calcium signal, replicate 1 = 1.91e7; resting calcium signal, replicate 2 = 2.01e7; inactive.
Knock-down of Spn28Dc (Serpin 28Dc) came out at: calcium entry signal, replicate 1 = 2.35e7; calcium entry signal, replicate 2 = 2.94e7; resting calcium signal, replicate 1 = 1.18e7; resting calcium signal, replicate 2 = 1.40e7; inactive.
After knock-down of CG6695 the results were calcium entry signal, replicate 1 = 5.25e7; calcium entry signal, replicate 2 = 4.62e7; resting calcium signal, replicate 1 = 2.07e7; resting calcium signal, replicate 2 = 1.69e7; inactive.
With knock-down of Ir20a (Ionotropic receptor 20a), the record shows calcium entry signal, replicate 1 = 5.26e7; calcium entry signal, replicate 2 = 4.19e7; resting calcium signal, replicate 1 = 2.33e7; resting calcium signal, replicate 2 = 1.78e7; inactive.
Depletion of CG6154 resulted in: calcium entry signal, replicate 1 = 3.10e7; calcium entry signal, replicate 2 = 6.29e7; resting calcium signal, replicate 1 = 1.85e7; resting calcium signal, replicate 2 = 2.68e7; inactive.
tadr (torn and diminished rhabdomeres) gave calcium entry signal, replicate 1 = 3.32e7; resting calcium signal, replicate 1 = 1.57e7; inactive.
RpS29 + snoRNA:Psi18S-1275 showed calcium entry signal, replicate 1 = 1.51e7; calcium entry signal, replicate 2 = 1.96e7; resting calcium signal, replicate 1 = 1.03e7; resting calcium signal, replicate 2 = 1.29e7; inactive.
With knock-down of fal (falten) the results were calcium entry signal, replicate 1 = 3.66e7; calcium entry signal, replicate 2 = 4.22e7; resting calcium signal, replicate 1 = 1.65e7; resting calcium signal, replicate 2 = 2.45e7; inactive.
After knock-down of fry (furry) #1 the results were calcium entry signal, replicate 1 = 4.56e7; calcium entry signal, replicate 2 = 4.64e7; resting calcium signal, replicate 1 = 2.38e7; resting calcium signal, replicate 2 = 2.04e7; inactive.
fry (furry) #2 showed calcium entry signal, replicate 1 = 3.16e7; calcium entry signal, replicate 2 = 3.82e7; resting calcium signal, replicate 1 = 1.54e7; resting calcium signal, replicate 2 = 1.71e7; inactive.
Silencing of fry (furry) #3 came out at: calcium entry signal, replicate 1 = 2.78e7; calcium entry signal, replicate 2 = 3.54e7; resting calcium signal, replicate 1 = 1.47e7; resting calcium signal, replicate 2 = 1.57e7; inactive.
After knock-down of fry (furry) #4, the screen gave calcium entry signal, replicate 1 = 6.06e7; calcium entry signal, replicate 2 = 4.74e7; resting calcium signal, replicate 1 = 3.70e7; resting calcium signal, replicate 2 = 2.23e7; inactive.

Records above whose target name starts with R or r:
Rbcn-3B (Rabconnectin-3B): calcium entry signal, replicate 1 = 4.26e7; calcium entry signal, replicate 2 = 6.47e7; entry to resting ratio = 1.4; resting calcium signal, replicate 1 = 2.97e7; resting calcium signal, replicate 2 = 4.05e7; activity call = inactive
RfC4 (Replication factor C subunit 4): calcium entry signal, replicate 1 = 4.52e7; calcium entry signal, replicate 2 = 3.96e7; resting calcium signal, replicate 1 = 3.26e7; resting calcium signal, replicate 2 = 1.83e7; activity call = inactive
RpS29 + snoRNA:Psi18S-1275: calcium entry signal, replicate 1 = 1.51e7; calcium entry signal, replicate 2 = 1.96e7; resting calcium signal, replicate 1 = 1.03e7; resting calcium signal, replicate 2 = 1.29e7; activity call = inactive
